This experiment addresses T1, UBE2QL1-myc-APEX2 (human) (UniProt A1L167).
T1 sequence: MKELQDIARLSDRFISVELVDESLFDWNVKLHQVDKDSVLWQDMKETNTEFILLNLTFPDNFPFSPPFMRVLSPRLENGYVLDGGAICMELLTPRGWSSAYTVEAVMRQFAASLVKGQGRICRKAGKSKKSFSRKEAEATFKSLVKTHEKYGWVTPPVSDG
The experiment can be described thus: proximity labelling; UBE2QL1-APEX2 stably expressed in HeLa cells; 500 uM biotin phenol for 30 min, H2O2 pulse 1 min at room temperature; SILAC comparison of LLOMe-treated (250 uM, 3 h, heavy) against EtOH-treated (light) cells; lysis in APEX-RIPA, streptavidin agarose purification, mass spectrometry; four replicates.

Amino acid sequences for entries named in this document (tags omitted). Residues count along the entry.
UniProt O15118, residues 23-1278: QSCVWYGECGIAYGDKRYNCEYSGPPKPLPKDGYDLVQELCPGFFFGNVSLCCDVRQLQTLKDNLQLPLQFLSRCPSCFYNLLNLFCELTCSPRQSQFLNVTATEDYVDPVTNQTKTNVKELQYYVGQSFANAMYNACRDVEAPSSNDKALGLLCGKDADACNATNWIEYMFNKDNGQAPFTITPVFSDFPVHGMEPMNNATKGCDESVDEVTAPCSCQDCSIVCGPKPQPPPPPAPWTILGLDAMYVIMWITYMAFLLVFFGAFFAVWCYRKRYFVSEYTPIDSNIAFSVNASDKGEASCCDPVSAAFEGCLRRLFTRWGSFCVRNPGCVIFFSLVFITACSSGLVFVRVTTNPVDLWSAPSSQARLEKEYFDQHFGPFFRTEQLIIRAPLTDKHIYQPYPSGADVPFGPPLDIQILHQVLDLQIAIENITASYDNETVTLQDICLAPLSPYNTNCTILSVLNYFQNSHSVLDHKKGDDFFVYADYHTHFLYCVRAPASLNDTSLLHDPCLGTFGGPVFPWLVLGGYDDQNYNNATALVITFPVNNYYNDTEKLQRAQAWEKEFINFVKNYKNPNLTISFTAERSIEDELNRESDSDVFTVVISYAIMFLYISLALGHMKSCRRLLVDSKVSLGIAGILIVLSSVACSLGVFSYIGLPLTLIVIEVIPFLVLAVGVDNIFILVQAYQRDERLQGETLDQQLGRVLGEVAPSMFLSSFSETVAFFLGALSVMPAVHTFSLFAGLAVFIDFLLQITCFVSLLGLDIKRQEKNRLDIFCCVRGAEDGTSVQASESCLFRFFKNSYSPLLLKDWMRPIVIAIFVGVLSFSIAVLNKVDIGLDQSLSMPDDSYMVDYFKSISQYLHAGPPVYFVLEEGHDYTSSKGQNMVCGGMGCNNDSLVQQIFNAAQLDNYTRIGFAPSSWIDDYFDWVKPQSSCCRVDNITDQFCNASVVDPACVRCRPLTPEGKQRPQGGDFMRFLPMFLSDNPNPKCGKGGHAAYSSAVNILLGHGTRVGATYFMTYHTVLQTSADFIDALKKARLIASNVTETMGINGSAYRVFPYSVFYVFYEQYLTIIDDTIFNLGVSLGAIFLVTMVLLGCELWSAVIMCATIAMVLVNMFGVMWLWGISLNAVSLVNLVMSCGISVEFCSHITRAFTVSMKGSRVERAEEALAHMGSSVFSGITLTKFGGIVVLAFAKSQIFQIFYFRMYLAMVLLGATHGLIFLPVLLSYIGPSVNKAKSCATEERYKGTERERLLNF

The source of these data is paper PMC6776906.

These are yes or no findings as the source states them, for the method shown. In cells and extracts the contact can be indirect. These calls come from enrichment with a bait or labelling near it, and not all partners need be listed. Sequences can lack the tags named with a protein.

In the case of “VCP/p97 (from UniProt P55072 1-806) (enzyme)”, the binding entry was “binds”.

Turning to NPC1 (from UniProt O15118 23-1278), the binding entry was “binds”.

B1: LIMP2 (also called SCARB2) (protein, UniProt Q14108 1-478)
chain: MGRCCFYTAGTLSLLLLVTSVTLLVARVFQKAVDQSIEKKIVLRNGTEAFDSWEKPPLPVYTQFYFFNVTNPEEILRGETPRVEEVGPYTYRELRNKANIQFGDNGTTISAVSNKAYVFERDQSVGDPKIDLIRTLNIPVLTVIEWSQVHFLREIIEAMLKAYQQKLFVTHTVDELLWGYKDEILSLIHVFRPDISPYFGLFYEKNGTNDGDYVFLTGEDSYLNFTKIVEWNGKTSLDWWITDKCNMINGTDGDSFHPLITKDEVLYVFPSDFCRSVYITFSDYESVQGLPAFRYKVPAEILANTSDNAGFCIPEGNCLGSGVLNVSICKNGAPIIMSFPHFYQADERFVSAIEGMHPNQEDHETFVDINPLTGIILKAAKRFQINIYVKKLDDFVETGDIRTMVFPVMYLNESVHIDKETASRLKSMINTTLIITNIPYIIMALGVFFGLVFTWLACKGQGSMDEGTADERAPLIRT
With B1, the binding entry was “binds”.
